Experimental data reported in patent EP1401467B3, “ALPHA-FETOPROTEIN PEPTIDES AND USES THEREOF” (Albany Medical College, priority 2001, dated 2003).
“Also recorded” adds a separate entry of the source. Read-outs that look alike come from different tables or passages of the source. At least one peptide structure holds a part that was inferred or is arguable (an end, a ring closure or a residue). Square brackets hold non-standard residues; d marks the D form. Ends that are not written are not given here. Peptide text beside a SMILES is read from it. Hyp = O=C(O)[C@@H]1C[C@@H](O)CN1

Assays:
[1] = tested on: E2-stimulated growth of immature mouse uterus; details: for inhibition of the uterotrophic effect of estradiol: Pep 1 µg i.p., one hour later E2 0.5 µg i.p., uteri weighed 22 hours later
Description: (§1) Peptide or vehicle control was injected i.p. into immature female Swiss mice. One hour later 0.5 µg of E2 or vehicle control was injected i.p. into these mice. Twenty-two hours later, uteri were dissected and weighed. Percent inhibition of E2-stimulated growth of uterus by peptide was calculated as described in Materials and Methods. There were five to eight replicate mice per treatment group. (Figure 1a) Peptide dose-response. […] Peptide, SEQ ID NO:2: […], was fractionated using a Waters SW 200 gel-filtration column using phosphate buffered saline pH 7.4 as mobil phase. Fractions which had significant UV absorbance at 230 nm were collected at twenty second intervals. The first fraction (Frac I), the last fraction (Frac III), and the starting material (UnFrac) were all tested in the immature mouse uterine growth assay as described in Figures 1a and 1b. […] (Figure 3a) dose-response. […] (Figure 4a) dose-response. […] There were five to eight replicate mice per treatment group. Estrogen was provided via a slow release pellet implanted subcutaneously. Peptide was given twice a day i.p. at a dose of 1 µg per mouse. Tumor volumes in each mouse were measured at the time of tumor implantation and at 10-day intervals thereafter during survival laparotomies. […] (Figure 6a) dose-response. […] Experimental protocol is described in legend to Figure 5 and Materials and Methods. […] Rabbit uterine cytosol was used as a source of estrogen receptor. All incubations were performed in triplicate, each containing 100 µl of cytosol, 20 µl of 10 nM 6,7-^3Hestradiol (50 Ci/mmol), and 80 µl of test agent at the final concentrations indicated on the abscissa. Details of the assay are described in Materials and Methods. • Concentration of [^3H] E2-complex with receptor in the presence of different concentrations of test agent is expressed as a percentage of the amount of complex formed in the absence of test agent; • Figures 9a and 9b illustrate the effect of AFP-derived peptide on growth of estrogen-receptor-positive MCF-7 and MCF-7/Tam.human breast cancer xenografts. Tumors were implanted as described in Materials and Methods. […] Tumor volumes in each mouse were measured at the time of tumor implantation, again at day 15 after tumor implantation during survival laparotomy and again at day 30 after tumor implantation during necropsy. There was a minimum of 5 mice per group. (Figure 9a) MCF-7 tumors. […] See legend to Figures 9a and 9b for experimental protocol. […] See legend to Figures 9a and 9b for experimental protocol. […] Rabbit uterine cytosol was used as a source of estrogen receptor. All incubations were performed in triplicate, each containing 100 µl of cytosol, 20 µl of 10 nM 6,7-^3H estradiol (50 Ci/mmol), and 80 µl of test agent at the final concentrations indicated on the abscissa. Concentration of [^3H] […] The assay procedure is described in the Materials and Methods.

[2] = Shelf-life / storage studies of lyophilized peptide, read out in the immature mouse uterine growth assay; format: physicochemical; details: for shelf-life / time in storage after which anti-estrotrophic activity was lost: storage in the lyophilized state at -20°C; for shelf-life: activity tested in immature mouse uterine growth assay; for biological activity after treatment with 4 M urea: stored/aged peptide, brief treatment with 4 M urea
Description: as §1

[3] = tested on: MCF-7 human breast cancer xenografts; test: Human breast cancer xenograft assay, MCF-7; format: in vivo; details: peptide 1 µg per mouse i.p. twice a day, E2 implant, SCID mice, 30-day observation
Description: Peptide or vehicle control was injected i.p. into immature female Swiss mice. One hour later 0.5 µg of E2 or vehicle control was injected i.p. into these mice. Twenty-two hours later, uteri were dissected and weighed. Percent inhibition of E2-stimulated growth of uterus by peptide was calculated as described in Materials and Methods. There were five to eight replicate mice per treatment group. (Figure 1a) Peptide dose-response. […] Peptide, SEQ ID NO:2: […], was fractionated using a Waters SW 200 gel-filtration column using phosphate buffered saline pH 7.4 as mobil phase. Fractions which had significant UV absorbance at 230 nm were collected at twenty second intervals. The first fraction (Frac I), the last fraction (Frac III), and the starting material (UnFrac) were all tested in the immature mouse uterine growth assay as described in Figures 1a and 1b. […] (Figure 3a) dose-response. […] (Figure 4a) dose-response. […] There were five to eight replicate mice per treatment group. Estrogen was provided via a slow release pellet implanted subcutaneously. Peptide was given twice a day i.p. at a dose of 1 µg per mouse. Tumor volumes in each mouse were measured at the time of tumor implantation and at 10-day intervals thereafter during survival laparotomies. […] (Figure 6a) dose-response. […] Experimental protocol is described in legend to Figure 5 and Materials and Methods. […] Rabbit uterine cytosol was used as a source of estrogen receptor. […] E2-complex with receptor in the presence of different concentrations of test agent is expressed as a percentage of the amount of complex formed in the absence of test agent; • Figures 9a and 9b illustrate the effect of AFP-derived peptide on growth of estrogen-receptor-positive MCF-7 and MCF-7/Tam.human breast cancer xenografts. […] Tumor volumes in each mouse were measured at the time of tumor implantation, again at day 15 after tumor implantation during survival laparotomy and again at day 30 after tumor implantation during necropsy. […]

[4] = tested on: MCF-7/Tam human breast cancer xenografts; test: Human breast cancer xenograft assay, tamoxifen-resistant MCF-7 subline; format: in vivo; details: peptide 1 µg i.p. twice a day, E2 implant, 30-day observation
[5] = tested on: T47D human breast cancer xenografts; test: Human breast cancer xenograft assay, T47D; format: in vivo; details: peptide 1 µg i.p. twice a day, E2 implant, 30-day observation
[6] = tested on: MDA-MB-231 human breast cancer xenografts; test: Human breast cancer xenograft assay, MDA-MB-231; format: in vivo; details: peptide 1 µg i.p. twice a day, 30 day observation
[7] = tested on: estrogen receptor; test: Assessment of estrogen receptor antagonism ([3H]estradiol binding, uterine cytosol); details: rabbit uterine cytosol, 10 nM [3H]estradiol, peptide concentration range of 10^-10 M to 10^-5 M
[8] = tested on: tamoxifen's uterotrophic effect on immature mouse uterus; test: Inhibition of tamoxifen-stimulated growth of immature mouse uterus; format: in vivo; details: Pep 1 µg i.p., one hour later Tam 1.0 µg i.p., uteri weighed 22 hours later

CSCC[C@H](NC(=O)[C@@H](N)CCC(=O)O)C(=O)N[C@H](C(=O)N1C[C@H](O)C[C@H]1C(=O)N[C@H](C(=O)N[C@@H](CC(N)=O)C(=O)N1C[C@H](O)C[C@H]1C(=O)NCC(N)=O)C(C)C)[C@@H](C)O [SEQ ID NO:4: EMTOVNOG, EMTOVNOG] (H-EMT[Hyp]VN[Hyp]G-NH2)
inhibition of the uterotrophic effect of estradiol ([1]; listed as AFP-derived peptide): significantly different
inhibition of the uterotrophic effect of estradiol ([1]; listed as peptide): inhibited
dose of maximal inhibitory activity on estrogen-stimulated growth of immature mouse uterus ([1]; i.p., dose-response): 1 µg per mouse
shelf-life [2]: indefinite shelf-life
shelf-life ([2]; listed as 4-hydroxyproline containing peptide): indefinite shelf life
estrogen-dependent growth of MCF-7 human breast cancer xenografts (tumor volume vs E2 alone) [3]: inhibited; also recorded: prevented growth; also recorded: no significant increase in tumor volume
estrogen-dependent growth of MCF-7 human breast cancer xenografts (tumor volume vs E2 alone) ([3]; listed as AFP-derived peptide): significantly different
estrogen-dependent growth of MCF-7 human breast cancer xenografts (tumor volume vs E2 alone) ([3]; listed as hydroxyproline-substituted linear peptide): significantly different
growth of tamoxifen-resistant MCF-7 subline xenografts (tumor volume vs E2 alone) [4]: completely prevented the xenograft growth; also recorded: completely stopped the growth
growth of tamoxifen-resistant MCF-7 subline xenografts (tumor volume vs E2 alone) ([4]; listed as AFP-derived peptide): significantly different
growth of ER+ T47D human breast cancer xenografts (tumor volume vs E2 alone) [5]: completely prevented tumor growth
growth of ER+ T47D human breast cancer xenografts (tumor volume vs E2 alone) ([5]; listed as AFP-derived peptide): significantly different
growth of ER- MDA-MB-231 human breast cancer xenografts [6]: Neither peptide nor tamoxifen were effective; also recorded: no effect
growth of ER- MDA-MB-231 human breast cancer xenografts ([6]; listed as AFP-derived peptide): no differences in tumor volumes
interference with E2 binding to ER [7]: does not interfere
interference with E2 binding to ER ([7]; listed as linear hydroxyproline-containing octapeptide): did not interfere
interference with E2 binding to ER ([7]; listed as peptide): no interference
inhibition of the uterotrophic effect of tamoxifen [8]: significantly inhibited
inhibition of the uterotrophic effect of tamoxifen ([8]; listed as AFP-derived peptide): significantly different
inhibition of the uterotrophic effect of tamoxifen ([8]; listed as peptide): inhibited

EMTPVNPG-NH2 [SEQ ID NO:6: EMTPVNPG, reference compound]
optimal dose / dose of maximal inhibition of estrogen-stimulated growth of mouse uterus ([1]; i.p., dose-response): ~1 µg/mouse
shelf-life of the peptide with excipient ([2]; excipient: Mannitol): significantly prolonged shelf-life
shelf-life of the peptide with excipient ([2]; excipient: dodecylmaltoside): significantly prolonged shelf-life
shelf-life of the peptide with excipient ([2]; excipient: sucrose): did not do so
time in storage after which anti-estrotrophic activity was lost [2]: four to five
biological activity after treatment with 4 M urea [2]: regenerated

EMTPVNPGQ-NH2 [SEQ ID NO:7: EMTPVNPGQ]
optimal dose / dose of maximal inhibition of estrogen-stimulated growth of mouse uterus ([1]; i.p., dose-response): 1 µg/mouse

QMTPVNPG-NH2 [SEQ ID NO:2: QMTPVNPG]
biological activity of higher molecular weight fraction ([1]; gel-filtration fraction of aged peptide (left side of peak), 1 µg i.p.): biologically inactive
biological activity of lower molecular weight fraction ([1]; gel-filtration fraction of aged peptide (right side of peak), 1 µg i.p.): active
optimal dose / dose of maximal inhibition of estrogen-stimulated growth of mouse uterus ([1]; i.p., dose-response): 1 µg/mouse
time in storage after which anti-estrotrophic activity was lost [2]: five
time in storage after which anti-estrotrophic activity was lost ([2]; listed as SEQ ID -NO:2: QMTPVNPG): four to five
biological activity of aged peptide ([2]; stored in the lyophilized state at -20°C for over one year): completely biologically inactive
biological activity after treatment with 4 M urea [2]: restored its biological activity
